This note sets out measurements from patent US20150132852A1, “TISSUE CULTURING METHOD, CULTURING METHOD OF FERNS AND EXPLANT OBTAINED THEREFROM” (Chunghwa Picture Tubes, Ltd., priority 2013, published 2015).

Structures are written as SMILES.

The subject of this data set is chopped prothallium of Davallia mariesii. The data set is described as follows: Calluses induction from chopped prothallium under various growth regulators. It counts as cell-based. The conditions noted are these: 60 days. How it is done: The prothallium is chopped up into small pieces being 0.1 cm to 0.2 cm in width and cultured (suspending culture) in a medium, wherein the medium comprises ½ MS medium (Murashige and Skoog, 1962) having a composition as shown in TABLE 1. In other examples, the medium can also comprise Knop medium (Murashige and Skoog, 1962) or knudson medium (Knudson, 1946). Precisely, 0.1 g chopped prothallium are cultured in 10 ml ½ MS medium, which are shake cultured at 85 rpm for forty to eighty days, and preferably at 23° C. to 25° C. and 11 to 14 μmol^−2 s^−1 (Light:Dark=16:8) for sixty days, and are sub-cultured every thirty days. In the present experiment, a plurality of 50 ml flasks are prepared, each having 0.1 g chopped prothallium of Davallia mariesii (in 0.1 cm to 0.2 cm pieces) being cultured in a medium therein, wherein the medium comprises 10 ml ½ MS medium (including a small amount of sucrose, namely 20 g/l sucrose) and various growth regulators in various amounts as listed in TABLE 2. After 60 days of culturing, calluses obtained in each flask are collected and analyzed respectively, to record the size, weight and number of each callus.

The mark [1] stands for this setting: single growth regulator 1 mg/L in 1/2 MS medium.
Setting [2] is: single growth regulator 2 mg/L in 1/2 MS medium.

As to `c1coc(CNc2ncnc3nc[nH]c23)c1` [Kinetin, 6-Furfurylamino-purine], the Appearances of calluses under setting [1] is reported as “green”, the Appearances of calluses under setting [2] is listed as “green” and the Appearances of calluses (single growth regulator 5 mg/L in 1/2 MS medium) is “green”.

Turning to `O=C(O)Cc1cccc2ccccc12` [NAA, 1-Naphthaleneacetic acid], the Appearances of calluses under setting [1] was “brown” and the Appearances of calluses under setting [2] was “brown”.
